# Measurements: PubChem BioAssay AID1439 (NMMLSC, 2008)
# Sequences of proteins named here, by UniProt entry; tags and fusion partners are left off.
# UniProt P09471, whole entry, looked up: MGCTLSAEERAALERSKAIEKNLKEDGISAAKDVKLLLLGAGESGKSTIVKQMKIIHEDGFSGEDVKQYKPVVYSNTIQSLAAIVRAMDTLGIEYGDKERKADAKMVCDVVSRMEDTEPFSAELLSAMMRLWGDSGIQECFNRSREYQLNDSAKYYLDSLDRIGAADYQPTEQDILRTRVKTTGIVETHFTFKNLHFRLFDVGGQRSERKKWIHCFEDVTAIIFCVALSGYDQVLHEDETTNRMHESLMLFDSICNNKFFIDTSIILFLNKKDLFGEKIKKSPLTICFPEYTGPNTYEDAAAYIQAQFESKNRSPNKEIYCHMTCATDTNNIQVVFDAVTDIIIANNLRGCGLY
# The campaign covered roughly 220,000 compounds. About 770 (0.35%) were called active. Inconclusive results, whose numbers are uncertain, are shown with a selection of clear calls. Cut-off read from the data, not from the text of the source: active = binding response below about 49% or above about 150%; inconclusive = no clear call, values can overlap the other calls; inactive = in between.
# Target: Guanine nucleotide-binding protein G(o) subunit alpha (Homo sapiens) (UniProt P09471)
# Test: RGS7-Galphao binding modulators, primary screen, biochemical, multiplexed bead flow cytometry (AID 1439);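 note: fluorescent Galphao held in activated GDP-AlF4 state binding bead-coupled RGS7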
# Conditions: at 10 µM, actives lie on both sides
row,SMILES,binding response (% of control)
1,OCCNc1nc2ccccc2nc1NCCO,inconclusive: 107%
2,COc1ccc(N2CCC(CNC(=S)Nc3c(C)cccc3C)C2)cc1 (stereo not drawn),inconclusive: 81.2%
3,CCOC(=O)N1CCC(N2CCCC(CO)(Cc3cccc(OC)c3)C2)CC1 (stereo not drawn),inactive: 99.9%
4,CCOC(=O)N1CCc2c(sc(N)c2C#N)C1,inconclusive: 103%
5,CCCCOc1nc2c(c(=O)n(C)c(=O)n2C)n1C,inconclusive: 100%
6,COc1ccc(-c2csc(NC(=O)C3=NN(c4ccccc4)C(=O)CC3)n2)cc1,inactive: 108%
7,O=C(CNC(=O)c1ccncc1)N/N=C/c1ccc(O)cc1O,inconclusive: 102%
8,NC(=O)c1ccc(CN2CCC(Cc3ccccc3)CC2)cc1,inactive: 99.1%
9,Cc1onc(-c2ccccc2Cl)c1C(=O)NC(=S)Nc1ccc(C(C)(C)C)cc1,inconclusive: 101%
10,O=C1C(=O)c2ccccc2C(O)=C1c1cccc([N+](=O)[O-])c1,inconclusive: 107%
11,CCN1CCN(CCCN(Cc2ccco2)C(=S)Nc2ccc(Cl)c(C)c2)CC1,inconclusive: 84.3%
12,COC(=O)c1[nH]c2ccccc2c1NC(=O)C(C)N1CC(C)OC(C)C1 (stereo not drawn),inconclusive: 92.3%
13,CCOc1ccc2sc(NS(=O)(=O)c3ccc(N)cc3)nc2c1,inconclusive: 69.9%
14,CCOC(=O)c1c(NC(=O)CSc2nc3cccnc3n2C)sc(C(C)=O)c1C,inactive: 101%
15,CCOC(=O)N1CCN(C(=O)/C(=C/c2cccs2)NC(=O)c2cccs2)CC1,inactive: 97.6%
16,CC(C)(O)C#Cc1ccc(C(=O)N2CCC(C(N)=O)(N3CCCCC3)CC2)cc1,inactive: 101%
17,O=C(NC1CCC(O)CC1)c1ccc(-c2ccc([N+](=O)[O-])cc2)o1 (stereo not drawn),inconclusive: 102%
18,CCN(CC)S(=O)(=O)c1ccc(NC(=O)c2cccnc2Cl)c(NC(=O)c2cccnc2Cl)c1,inconclusive: 110%
19,O=C(NCc1ccccc1)c1cccc(F)c1F,inactive: 100%
20,CC(C)(C)C1CCc2c(sc3ncn(N)c(=N)c23)C1 (stereo not drawn),inconclusive: 93.8%

row,SMILES,binding response (% of control)
1,COc1ccc(/C=N\NC(=O)C2COc3ccccc3O2)cc1O (stereo not drawn),inconclusive: 103%
2,COC(=O)C1CCN(C2=C(NS(=O)(=O)c3ccc(Cl)cc3)C(=O)c3ccccc3C2=O)CC1,inconclusive: 56.1%
3,O=C(NNS(=O)(=O)c1ccccc1)C1CC(c2cccnc2)=NO1 (stereo not drawn),inconclusive: 91.5%
4,Oc1c(Br)cc(/C=N/NC(=S)NCC2CCCO2)cc1Br (stereo not drawn),inconclusive: 42.1%
5,CCN1CCN(C(=S)c2ccc(OCC(=O)N3CCOCC3)cc2)CC1,active: 8.77%
6,COc1ccccc1N(C)S(=O)(=O)c1ccc(C(=O)OCC(=O)N2CCCCCC2)cc1,inconclusive: 107%
7,COc1cc(C#N)ccc1OCC(=O)Nc1cccc(S(=O)(=O)N2CCCC2)c1,inconclusive: 80.3%
8,Cc1nc(S/C(=C/c2ccc(OCc3ccc(C(=O)O)cc3)cc2)C(=O)O)n[nH]1,inconclusive: 106%
9,COc1ccc(C(=O)COC(=O)c2ccc3ccccc3n2)cc1,active: 39%
10,Nc1nc2c(F)c(F)c(F)cc2s1,inconclusive: 103%
11,O=C(O)CCn1c(=O)[nH]c(=O)n(CCC(=O)O)c1=O,inconclusive: 107%
12,CCOc1ccc(NC(=S)Nc2ccc(OC)cc2)cc1,inconclusive: 123%
13,CCOC(=O)/C(=N/Nc1ccc(C)cc1)S(=O)(=O)c1ccc(Cl)cc1,inactive: 102%
14,CCCN1C(=O)/C(=C2\SC(=S)N(c3c(C)n(C)n(-c4ccccc4)c3=O)C2=O)c2ccccc21,inconclusive: 102%
15,O=S1(=O)C=CC(c2ccccc2)C1 (stereo not drawn),inconclusive: 102%
16,O=C(NNc1ccccc1C(F)(F)F)c1cccs1,inconclusive: 73.5%
17,Brc1ccccc1-c1nnc(CSc2nnc3sc4ccccc4n23)o1,inactive: 99.4%
18,C=CCN1C=C2C(=O)C(C)(OC(=O)CCC(=O)OC)C(=O)C(Br)=C2C=C1c1ccc(OC)cc1 (stereo not drawn),inconclusive: 56.2%
19,O=C(COc1ccccc1)NNc1nc2ccccc2s1,inconclusive: 65.1%
20,O=C(c1ccco1)N1CCCN(Cc2nc(Cc3ccccc3)no2)CC1,inactive: 96.6%

row,SMILES,binding response (% of control)
1,CC(C)(C)NCC(O)COc1ccc(Br)cc1 (stereo not drawn),inactive: 102%
2,COc1ccc(N2C(=O)[C@H]3[C@@H](C2=O)C2c4ccccc4C=NN2[C@H]3C(=O)C(C)(C)C)cc1 (stereo partly drawn),inconclusive: 94%
3,CCCCNC(=O)CN(CCc1ccccc1)S(C)(=O)=O,inactive: 133%
4,CC(CCc1ccccc1)NC(=O)CN1CCN(c2ccccc2)CC1 (stereo not drawn),inactive: 104%
5,CCCCCc1cc(=O)oc2c(C(CCN3CCCC3)c3ccc(N(C)C)cc3)c(OC)cc(OC)c12 (stereo not drawn),inconclusive: 98.8%
6,CN(C)S(=O)(=O)c1ccc(N)c([N+](=O)[O-])c1,inconclusive: 87.5%
7,COc1ccc(NC(=O)CSc2ccc(NC(C)=O)cc2)cc1S(=O)(=O)N1CCCCC1,inactive: 133%
8,Cc1ccc(F)cc1NC(=O)Nc1cc(C(C)(C)C)nn1C,inconclusive: 74.5%
9,CN(C)CCCNC(=O)c1cc(Br)ccc1O,inconclusive: 134%
10,O=C(COC(=O)Cn1cnc2ccccc21)Nc1cc(S(=O)(=O)N2CCOCC2)ccc1Cl,inconclusive: 106%
11,O=C(NCc1ccc2c(c1)OCO2)c1ccc2c(c1)OCO2,inconclusive: 98.1%
12,COc1ccc(-n2c(SCC(=O)Nc3ccc(Br)cc3)nc(O)cc2=O)cc1,inconclusive: 98.6%
13,CCN(CC)CCN1C(=O)C(O)=C(C(=O)c2cc3cccc(OC)c3o2)C1c1cccs1 (stereo not drawn),inconclusive: 113%
14,CCCC(=O)Nc1ccc(-c2csc(NNC(C)=O)n2)cc1,inconclusive: 103%
15,CC(=O)c1csc(Nc2ccccc2Cl)n1,inconclusive: 127%
16,CC1CCc2nc(NC(=O)c3cc(C(C)(C)C)nn3C)sc2C1 (stereo not drawn),inconclusive: 86.7%
17,Cc1ccc(NS(=O)(=O)c2sc3ccc(Cl)cc3c2C)cc1,inconclusive: 116%
18,CCOC(=O)c1cc2c(=O)n3ccccc3nc2n(C(C)C)c1=NC(=O)c1ccco1,inconclusive: 111%

# Sorted by number of heavy atoms (falling): some entries from above
row,SMILES,binding response (% of control)
5,CCCCCc1cc(=O)oc2c(C(CCN3CCCC3)c3ccc(N(C)C)cc3)c(OC)cc(OC)c12 (stereo not drawn),inconclusive: 98.8%
10,O=C(COC(=O)Cn1cnc2ccccc21)Nc1cc(S(=O)(=O)N2CCOCC2)ccc1Cl,inconclusive: 106%
11,O=C(NCc1ccc2c(c1)OCO2)c1ccc2c(c1)OCO2,inconclusive: 98.1%
